Data as given in PMC7819943, “Rice protein-binding microarrays: a tool to detect cis-acting elements near promoter regions in rice”.
This is one part of the list.

target: T1, OsSMF1 (Oryza sativa, UniProt Q6ZLB0 1-436); test: protein-binding microarray (RPBM); PBS, 2% BSA, 51.3 ng/ul salmon testes DNA, 50 uM zinc acetate, 200 nM TF, 25 C, 1 h; high values mean tight binding; conditions: protein: recombinant; tags: N-terminal polyhistidine and DsRed monomer fusion (pET32a); chain copies: 2; label: CyDye5-dUTP incorporated in the synthesized complementary strand; 3' TTTTT single-stranded linker to array surface; dsDNA, one strand shown
T1 sequence: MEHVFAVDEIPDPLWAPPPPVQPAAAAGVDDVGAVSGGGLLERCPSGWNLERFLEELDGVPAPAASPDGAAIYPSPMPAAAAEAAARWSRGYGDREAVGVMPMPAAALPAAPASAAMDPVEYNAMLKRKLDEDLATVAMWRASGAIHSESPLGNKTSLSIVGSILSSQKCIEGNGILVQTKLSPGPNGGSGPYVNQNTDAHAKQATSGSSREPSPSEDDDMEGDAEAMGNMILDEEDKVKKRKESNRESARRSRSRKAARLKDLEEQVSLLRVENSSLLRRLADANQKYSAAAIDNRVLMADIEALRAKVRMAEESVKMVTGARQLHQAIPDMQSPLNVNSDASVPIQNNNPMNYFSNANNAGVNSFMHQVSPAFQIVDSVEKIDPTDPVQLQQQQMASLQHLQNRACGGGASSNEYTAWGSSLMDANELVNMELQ
Summary of the method: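 Using Ni–NTA, transcription factors fused N-terminally to polyhistidine and DsRed were purified after expression in E. coli BL21-CodonPlus. These were incubated at 200 nM with a blocked, double-stranded custom Agilent array for 1 h at 25 °C in a buffer containing 50 µM zinc acetate, and the array was washed. The binding signal is per-feature fluorescence intensity (arbitrary units) on an Axon 4000B scanner.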

Row | Sequence | binding signal
1 | TGGGGCCGTGAGGCCACGTGCCCGGCATGCCACGGTGGAGCGGAGTCACCTAGTGCAG | 10000 fluorescence intensity (a.u.)
2 | ACACACACACACACCCACCACACCACCCCGGCCGCTTCCGCGGAGTCACCTAGTGCAG | 3210 fluorescence intensity (a.u.)
3 | AGTAATAGAGATGCACAGATGGAGCGAGTATGAGATAATGCGGAGTCACCTAGTGCAG | 29600 fluorescence intensity (a.u.)
4 | AGTTCTACTTGAGTTATGTAATGAATCACAATGCCTTCATCGGAGTCACCTAGTGCAG | 53400 fluorescence intensity (a.u.)
5 | ACGCATCAACAGTGGAGGGAGGGGAGGGGAGGAGCTTCCCCGGAGTCACCTAGTGCAG | 3940 fluorescence intensity (a.u.)
6 | CCTGTGCCAGCTTGGACTCTCTCATCTCACCCCTTTCTTTCGGAGTCACCTAGTGCAG | 4360 fluorescence intensity (a.u.)
7 | CTGTGTGAACAACAAATCAATGGCCACGTCATATATGTACCGGAGTCACCTAGTGCAG | 16800 fluorescence intensity (a.u.)
8 | AAAGGTAATCTACTATAGCCGCTACAAACATTTCTCCCTCCGGAGTCACCTAGTGCAG | 11800 fluorescence intensity (a.u.)
9 | TTGACTTTGCCTCTCTTGATGAGTGTACCATCATATTTTCCGGAGTCACCTAGTGCAG | 3170 fluorescence intensity (a.u.)
10 | TACCCTTGTGCCGGCCGAGACGGCACCACGCCTTTCTCGTCGGAGTCACCTAGTGCAG | 5000 fluorescence intensity (a.u.)
11 | TCCAGATGATGGAACATCTACACGCTACCCCACGTCGGCTCGGAGTCACCTAGTGCAG | 5000 fluorescence intensity (a.u.)
12 | CCGCTGCGCGAGATGCGATGCGACTGTGTCAACCCACGCGCGGAGTCACCTAGTGCAG | 3500 fluorescence intensity (a.u.)
13 | TTAGGGCCACGGATAAGATTTCGATACCTTTTGAGGGTCGCGGAGTCACCTAGTGCAG | 3380 fluorescence intensity (a.u.)
14 | ATCCCTTTCTGTCGAATGGTCTCTCATAACGCCTCCCCTACGGAGTCACCTAGTGCAG | 3480 fluorescence intensity (a.u.)
15 | CAGTGCCGACTGCCGAGGCAGAGAGGCAGACAAAGTGACACGGAGTCACCTAGTGCAG | 54900 fluorescence intensity (a.u.)
16 | CGCGTGGTCAGCTACACGTACTTGACTTGTTCTGTTACTCCGGAGTCACCTAGTGCAG | 4480 fluorescence intensity (a.u.)
17 | CCTCCTCCCTGATCGAGATCGAGTCGACACACATACACCACGGAGTCACCTAGTGCAG | 3560 fluorescence intensity (a.u.)
18 | CGCCAAGTCCGACGTCCTCCTCTGAACAATCCAAGTATCCCGGAGTCACCTAGTGCAG | 3270 fluorescence intensity (a.u.)
19 | CTTCCCTCCCTCATGCACGCTGACGCTGCAATGCTCCTCCCGGAGTCACCTAGTGCAG | 8110 fluorescence intensity (a.u.)
20 | CAAACAAGCCACGTAGATGCCACGTCATCCAAAACCGCCTCGGAGTCACCTAGTGCAG | 29600 fluorescence intensity (a.u.)
21 | AAACTCTGCACCAATGCAGTTCCAAGCATTACACATCATCCGGAGTCACCTAGTGCAG | 4350 fluorescence intensity (a.u.)

A different layout for some results above.
ATCCCTTTCTGTCGAATGGTCTCTCATAACGCCTCCCCTACGGAGTCACCTAGTGCAG
  binding signal: 3480 fluorescence intensity (a.u.)
CAGTGCCGACTGCCGAGGCAGAGAGGCAGACAAAGTGACACGGAGTCACCTAGTGCAG
  binding signal: 54900 fluorescence intensity (a.u.)

Later entries.

Row | Sequence | binding signal
22 | GTTAAAATGTGTTTGATGTTTGGGTTCTATATTGCCACGCCGGAGTCACCTAGTGCAG | 13600 fluorescence intensity (a.u.)
23 | CGGCTCAATACCACGCGGGATCCACCGTGATTTCGGCCCACGGAGTCACCTAGTGCAG | 3210 fluorescence intensity (a.u.)
24 | GCCCGCCCGTCCCGTCCGACGTCCGCGTCACGCACGCGCGCGGAGTCACCTAGTGCAG | 7940 fluorescence intensity (a.u.)
25 | CCTAACGAAACGATCCGGGTGCCACGTTTGGAGGCAATAGCGGAGTCACCTAGTGCAG | 5700 fluorescence intensity (a.u.)
26 | AAGGAGAGGGAGGATGACATGTGGTCTCTCATGTCAGTGACGGAGTCACCTAGTGCAG | 3630 fluorescence intensity (a.u.)
27 | TAACCAAAACGCATGCATACGTACGTAAGTGACACCAGCCCGGAGTCACCTAGTGCAG | 4070 fluorescence intensity (a.u.)
28 | CCTGTCACCCTCTCCATCGCCACGCAGCACGCAACCTCGCCGGAGTCACCTAGTGCAG | 3580 fluorescence intensity (a.u.)
29 | TGTTCCACAAACTGTTCGTTTCTTTGCCAACGCCTCCAAACGGAGTCACCTAGTGCAG | 3470 fluorescence intensity (a.u.)
30 | AATGATCACCCCGTATGCAGGCAGGACGCGCAACTTGAGCCGGAGTCACCTAGTGCAG | 3220 fluorescence intensity (a.u.)
31 | ATGCGCCATGTCAAAGCCACGTCAGATAAAGACCGAGTCACGGAGTCACCTAGTGCAG | 22000 fluorescence intensity (a.u.)
32 | ATGCACGAATCTCTGAACTAATTGCACAGTGAAAGAATCGCGGAGTCACCTAGTGCAG | 3470 fluorescence intensity (a.u.)
33 | CGAAGACTAAGTCAACACCACCACGTAGTCGCCACATCAGCGGAGTCACCTAGTGCAG | 8880 fluorescence intensity (a.u.)
34 | TTGAGAACTTCATCATTGCCTCAGTCAGCTTGAGCGCCTACGGAGTCACCTAGTGCAG | 3380 fluorescence intensity (a.u.)
35 | GCTGGCGTGTTCGCTTCCGGTGATATCCACGTCGCCCGGCCGGAGTCACCTAGTGCAG | 6590 fluorescence intensity (a.u.)
36 | CTATAGTATCCTCTTATATTTAACTGTGAGGCTTTTCTCCCGGAGTCACCTAGTGCAG | 3460 fluorescence intensity (a.u.)
37 | GCGTTGCTAGATGCCACGTTGACACCTAGGTGTCAGTGAACGGAGTCACCTAGTGCAG | 7850 fluorescence intensity (a.u.)
38 | CAGACACACAAATTTTCCACAGTTTCAGGCTCGCAGGCAGCGGAGTCACCTAGTGCAG | 17500 fluorescence intensity (a.u.)
39 | TTTATTTATGACGTCATTATTCCCCTCTCGCGCGCCTATACGGAGTCACCTAGTGCAG | 11800 fluorescence intensity (a.u.)
40 | TCTACGTCAGGAGTTGAGCACAAATCATATCCGTCAGCTCCGGAGTCACCTAGTGCAG | 3410 fluorescence intensity (a.u.)
41 | GAGCTGTTGTTGTGACATCCCAGGTCTTAGTTTTATGCTTCGGAGTCACCTAGTGCAG | 3270 fluorescence intensity (a.u.)
42 | CTCATCTCAAGCTTTTCTCTCTCTCTCTCTCTTTGCACTACGGAGTCACCTAGTGCAG | 4680 fluorescence intensity (a.u.)
